Source: doi:10.1101/2020.09.14.296178
These are yes or no findings as the source states them, for the method shown. In cells and extracts the contact can be indirect. Here binding means that the protein was enriched with, or labelled near, the bait; the list need not be complete. Tags and fused reporters may be left off the sequences shown.

Biological target: T1, Halo-tagged PKP2 (cardiac specific plakophilin-2a) (UniProt Q99959)
T1 sequence: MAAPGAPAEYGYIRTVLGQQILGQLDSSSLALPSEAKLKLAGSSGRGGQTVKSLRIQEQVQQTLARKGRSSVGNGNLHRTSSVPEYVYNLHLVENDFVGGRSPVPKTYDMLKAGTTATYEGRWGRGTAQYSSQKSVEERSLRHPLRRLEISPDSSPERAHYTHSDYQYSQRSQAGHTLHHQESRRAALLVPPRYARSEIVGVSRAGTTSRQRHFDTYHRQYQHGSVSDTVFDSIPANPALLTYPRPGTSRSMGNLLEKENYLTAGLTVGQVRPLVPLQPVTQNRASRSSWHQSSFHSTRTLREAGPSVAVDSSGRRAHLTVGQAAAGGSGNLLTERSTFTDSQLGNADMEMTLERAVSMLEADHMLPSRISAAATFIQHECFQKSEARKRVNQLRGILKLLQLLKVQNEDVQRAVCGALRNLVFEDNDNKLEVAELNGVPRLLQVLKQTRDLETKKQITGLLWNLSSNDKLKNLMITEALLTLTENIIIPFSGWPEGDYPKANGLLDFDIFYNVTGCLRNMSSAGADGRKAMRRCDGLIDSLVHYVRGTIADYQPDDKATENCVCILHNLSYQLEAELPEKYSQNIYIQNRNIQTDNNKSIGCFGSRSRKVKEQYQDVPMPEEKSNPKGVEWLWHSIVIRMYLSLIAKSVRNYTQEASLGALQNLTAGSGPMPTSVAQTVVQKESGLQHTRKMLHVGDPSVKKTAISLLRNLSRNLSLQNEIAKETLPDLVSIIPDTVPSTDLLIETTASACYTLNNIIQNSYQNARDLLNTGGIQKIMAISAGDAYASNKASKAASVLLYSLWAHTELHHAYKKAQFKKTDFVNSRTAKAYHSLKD
Assay: affinity purification with mass spectrometry

“desmocolin (human (endogenous in HEK293T))” was tested, and the binding was “binds”.

For “myosin 9 (Myh9), non-muscle myosin heavy chain II-A (from UniProt P35579 1-1960)”, the binding was “binds”.

“myosin 10 (Myh10), non-muscle myosin heavy chain II-B (from UniProt P35580 1-1976)” was tested, and the binding was “binds”.

For “desmoglein (human (endogenous in HEK293T))”, the binding was “binds”.

In the case of “desmoplakin (from UniProt P15924 1-2871)”, the binding is reported as “binds”.

B1: plakoglobin (protein, UniProt P14923 1-745)
chain: MEVMNLMEQPIKVTEWQQTYTYDSGIHSGANTCVPSVSSKGIMEEDEACGRQYTLKKTTTYTQGVPPSQGDLEYQMSTTARAKRVREAMCPGVSGEDSSLLLATQVEGQATNLQRLAEPSQLLKSAIVHLINYQDDAELATRALPELTKLLNDEDPVVVTKAAMIVNQLSKKEASRRALMGSPQLVAAVVRTMQNTSDLDTARCTTSILHNLSHHREGLLAIFKSGGIPALVRMLSSPVESVLFYAITTLHNLLLYQEGAKMAVRLADGLQKMVPLLNKNNPKFLAITTDCLQLLAYGNQESKLIILANGGPQALVQIMRNYSYEKLLWTTSRVLKVLSVCPSNKPAIVEAGGMQALGKHLTSNSPRLVQNCLWTLRNLSDVATKQEGLESVLKILVNQLSVDDVNVLTCATGTLSNLTCNNSKNKTLVTQNSGVEALIHAILRAGDKDDITEPAVCALRHLTSRHPEAEMAQNSVRLNYGIPAIVKLLNQPNQWPLVKATIGLIRNLALCPANHAPLQEAAVIPRLVQLLVKAHQDAQRHVAAGTQQPYTDGVRMEEIVEGCTGALHILARDPMNRMEIFRLNTIPLFVQLLYSSVENIQRVAAGVLCELAQDKEAADAIDAEGASAPLMELLHSRNEGTATYAAAVLFRISEDKNPDYRKRVSVELTNSLFKHDPAAWEAAQSMIPINEPYGDDMDATYRPMYSSDVPLDPLEMHMDMDGDYPIDTYSDGLRPPYPTADHMLA
For B1, the binding was “binds”.
